No constants are given. Whether binding was seen depends on the method and setting. In cells and extracts the contact can be indirect. Some binding calls cover weakened binding; strength is not graded here.
Columns and labels:
[1] = molecular target: anaplastic lymphoma kinase (ALK), wild type, endogenous in IMR-5 cells (human (endogenous in IMR-5)) (UniProt Q9UM73); test: co-IP; endogenous NUMB and ALK from IMR-5 neuroblastoma cells
[2] = molecular target: wild-type ALK ectopically expressed in HEK293 cells (HEK293/ALK stable cell line) (UniProt Q9UM73); test: co-IP; endogenous NUMB with ectopically expressed ALK in the HEK293/ALK stable cell line

By UniProt entry, the sequences of proteins in these tests, tags left out. Residues count along the entry.
UniProt Q9UM73, residues 19-1620: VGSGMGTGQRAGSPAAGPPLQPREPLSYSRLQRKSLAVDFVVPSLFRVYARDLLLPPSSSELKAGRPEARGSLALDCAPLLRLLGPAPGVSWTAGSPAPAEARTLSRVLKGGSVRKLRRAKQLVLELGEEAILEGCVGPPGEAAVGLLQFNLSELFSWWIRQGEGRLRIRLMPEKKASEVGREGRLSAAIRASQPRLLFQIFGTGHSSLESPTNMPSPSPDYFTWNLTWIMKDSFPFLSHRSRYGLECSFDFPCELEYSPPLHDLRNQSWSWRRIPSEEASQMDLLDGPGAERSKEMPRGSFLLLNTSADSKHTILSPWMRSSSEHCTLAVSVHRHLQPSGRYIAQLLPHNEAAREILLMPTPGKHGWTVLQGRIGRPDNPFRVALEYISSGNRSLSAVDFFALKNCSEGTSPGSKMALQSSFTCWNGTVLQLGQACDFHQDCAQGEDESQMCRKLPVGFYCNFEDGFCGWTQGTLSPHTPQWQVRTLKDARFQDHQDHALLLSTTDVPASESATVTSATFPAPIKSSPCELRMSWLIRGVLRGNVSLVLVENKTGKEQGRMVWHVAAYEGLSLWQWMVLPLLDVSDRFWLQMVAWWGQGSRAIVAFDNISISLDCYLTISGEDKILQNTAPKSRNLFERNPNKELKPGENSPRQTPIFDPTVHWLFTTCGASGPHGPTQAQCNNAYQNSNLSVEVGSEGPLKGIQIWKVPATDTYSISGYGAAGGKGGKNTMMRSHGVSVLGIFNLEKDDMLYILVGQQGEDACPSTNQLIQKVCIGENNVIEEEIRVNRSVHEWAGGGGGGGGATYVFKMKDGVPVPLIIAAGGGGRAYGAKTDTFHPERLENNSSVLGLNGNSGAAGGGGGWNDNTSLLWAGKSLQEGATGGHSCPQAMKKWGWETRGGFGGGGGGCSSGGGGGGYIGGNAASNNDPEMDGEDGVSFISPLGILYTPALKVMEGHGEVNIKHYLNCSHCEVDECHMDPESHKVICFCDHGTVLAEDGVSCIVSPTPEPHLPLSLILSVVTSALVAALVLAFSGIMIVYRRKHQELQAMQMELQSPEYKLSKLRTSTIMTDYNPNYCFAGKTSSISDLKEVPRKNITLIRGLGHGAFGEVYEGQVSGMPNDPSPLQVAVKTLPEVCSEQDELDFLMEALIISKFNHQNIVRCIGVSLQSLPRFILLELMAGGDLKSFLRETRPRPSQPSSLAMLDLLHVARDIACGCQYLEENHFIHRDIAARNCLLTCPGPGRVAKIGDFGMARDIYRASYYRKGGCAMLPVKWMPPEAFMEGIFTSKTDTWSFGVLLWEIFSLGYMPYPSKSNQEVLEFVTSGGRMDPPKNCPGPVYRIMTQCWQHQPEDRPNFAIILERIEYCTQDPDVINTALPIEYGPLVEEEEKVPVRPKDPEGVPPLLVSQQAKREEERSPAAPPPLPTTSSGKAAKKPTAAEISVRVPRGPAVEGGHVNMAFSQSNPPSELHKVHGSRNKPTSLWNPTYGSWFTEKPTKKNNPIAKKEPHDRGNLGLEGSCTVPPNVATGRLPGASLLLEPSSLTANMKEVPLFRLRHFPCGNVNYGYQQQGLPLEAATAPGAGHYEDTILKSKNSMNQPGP

binding [1] | binding [2] | Binder
binds |  | NUMB (endogenous, IMR-5 neuroblastoma cells) (protein, UniProt P49757 1-651) MNKLRQSFRRKKDVYVPEASRPHQWQTDEEGVRTGKCSFPVKYLGHVEVDESRGMHICEDAVKRLKAERKFFKGFFGKTGKKAVKAVLWVSADGLRVVDEKTKDLIVDQTIEKVSFCAPDRNFDRAFSYICRDGTTRRWICHCFMAVKDTGERLSHAVGCAFAACLERKQKREKECGVTATFDASRTTFTREGSFRVTTATEQAEREEIMKQMQDAKKAETDKIVVGSSVAPGNTAPSPSSPTSPTSDATTSLEMNNPHAIPRRHAPIEQLARQGSFRGFPALSQKMSPFKRQLSLRINELPSTMQRKTDFPIKNAVPEVEGEAESISSLCSQITNAFSTPEDPFSSAPMTKPVTVVAPQSPTFQANGTDSAFHVLAKPAHTALAPVAMPVRETNPWAHAPDAANKEIAATCSGTEWGQSSGAASPGLFQAGHRRTPSEADRWLEEVSKSVRAQQPQASAAPLQPVLQPPPPTAISQPASPFQGNAFLTSQPVPVGVVPALQPAFVPAQSYPVANGMPYPAPNVPVVGITPSQMVANVFGTAGHPQAAHPHQSPSLVRQQTFPHYEASSATTSPFFKPPAQHLNGSAAFNGVDDGRLASADRHTEVPTGTCPVDPFEAQWAALENKSKQRTNPSPTNPFSSDLQKTFEIEL
 | binds | NUMB (endogenous, HEK293/ALK cells) (protein, UniProt P49757 1-651) MNKLRQSFRRKKDVYVPEASRPHQWQTDEEGVRTGKCSFPVKYLGHVEVDESRGMHICEDAVKRLKAERKFFKGFFGKTGKKAVKAVLWVSADGLRVVDEKTKDLIVDQTIEKVSFCAPDRNFDRAFSYICRDGTTRRWICHCFMAVKDTGERLSHAVGCAFAACLERKQKREKECGVTATFDASRTTFTREGSFRVTTATEQAEREEIMKQMQDAKKAETDKIVVGSSVAPGNTAPSPSSPTSPTSDATTSLEMNNPHAIPRRHAPIEQLARQGSFRGFPALSQKMSPFKRQLSLRINELPSTMQRKTDFPIKNAVPEVEGEAESISSLCSQITNAFSTPEDPFSSAPMTKPVTVVAPQSPTFQANGTDSAFHVLAKPAHTALAPVAMPVRETNPWAHAPDAANKEIAATCSGTEWGQSSGAASPGLFQAGHRRTPSEADRWLEEVSKSVRAQQPQASAAPLQPVLQPPPPTAISQPASPFQGNAFLTSQPVPVGVVPALQPAFVPAQSYPVANGMPYPAPNVPVVGITPSQMVANVFGTAGHPQAAHPHQSPSLVRQQTFPHYEASSATTSPFFKPPAQHLNGSAAFNGVDDGRLASADRHTEVPTGTCPVDPFEAQWAALENKSKQRTNPSPTNPFSSDLQKTFEIEL

Source: publication PMC6927325
